# Measurements taken from patent US20240011018A1, “MULTIPLEXED METHOD FOR ASSESSING GLOBAL OR GENOMIC LOCUS-SPECIFIC LEVELS OF CHROMATIN MODIFICATION” (Epigenica AB, priority 2020, published 2024).
# At least one compound was matched to its structure with a doubt left.
# Tests used:
# H3K27me3 in HCT116 cells = test: hmqChIP quantification of global H3K27me3 level after drug treatment, HCT116; format: cell-based, human; details: 0.5 uM/5 uM, 40 h, anti-H3K27me3 ChIP
# Method: A highly multiplexed experiment profiling global levels of three histone modifications in 96 samples: Two different cancer cell lines (human colon cancer HCT116, human osteosarcoma U2OS) were treated with 11 different drugs at 2 concentrations each (low, high) or DMSO as a control. Two replicates each (rep1, rep2) were performed of each treatment, totaling 96 samples. For U2OS, 9000 cells were seeded per 96-well, For HCT116, 6000 cells were seeded. After 24 h, drugs were added to each well, using the concentration specified in the following table:
# After further growth for 40 h, the cell number was approx. 50 000 cells per well. […]
# The final libraries were sequenced twice, to test the influence of sequencing two different random set of molecules on the quantification of global levels (that only scarcely covering the genome). The first time ˜1 Mio reads were sequenced in total for the four sub-pools (3 ChIP, 1 input), approximately 250 000 per sub-pool. […] The second time at total of 25 Mio reads were collected and either all of the reads were analyzed, or only a randomly selected subset of 1 mio reads. When all reads were analyzed, it corresponds to approx. 260,416 reads per sample. Input-normalized unique read count (INRCs) using DMSO controls as reference were calculated as described in Example 2 and plotted in a heatmap with grayscale and circle size reflecting the INRC.
# [1] = tested on: H3K27me3 in mouse embryonic stem cells; details: dataset according to Kumar and Elsässer 2019; cited from earlier work
structure (smiles),measurement,setting,value
"CCN(c1cc(-c2ccc(CN3CCOCC3)cc2)cc(C(=O)NCc2c(C)cc(C)[nH]c2=O)c1C)C1CCOCC1 [EPZ6438, Tazemetostat]",global H3K27me3 level (INRC relative to DMSO control),H3K27me3 in HCT116 cells,decrease H3K27me3
same,H3K27me3 level of treated mESC used as calibration cell source,[1],reduce H3K27me3 below detectable levels
